According to the supplement of paper PMC10849652:
Some of the results follow.

Amino acid sequences for entries named in this document (tags omitted). A change or cut given only in a name is not applied to a line headed by its entry.
UniProt P31040: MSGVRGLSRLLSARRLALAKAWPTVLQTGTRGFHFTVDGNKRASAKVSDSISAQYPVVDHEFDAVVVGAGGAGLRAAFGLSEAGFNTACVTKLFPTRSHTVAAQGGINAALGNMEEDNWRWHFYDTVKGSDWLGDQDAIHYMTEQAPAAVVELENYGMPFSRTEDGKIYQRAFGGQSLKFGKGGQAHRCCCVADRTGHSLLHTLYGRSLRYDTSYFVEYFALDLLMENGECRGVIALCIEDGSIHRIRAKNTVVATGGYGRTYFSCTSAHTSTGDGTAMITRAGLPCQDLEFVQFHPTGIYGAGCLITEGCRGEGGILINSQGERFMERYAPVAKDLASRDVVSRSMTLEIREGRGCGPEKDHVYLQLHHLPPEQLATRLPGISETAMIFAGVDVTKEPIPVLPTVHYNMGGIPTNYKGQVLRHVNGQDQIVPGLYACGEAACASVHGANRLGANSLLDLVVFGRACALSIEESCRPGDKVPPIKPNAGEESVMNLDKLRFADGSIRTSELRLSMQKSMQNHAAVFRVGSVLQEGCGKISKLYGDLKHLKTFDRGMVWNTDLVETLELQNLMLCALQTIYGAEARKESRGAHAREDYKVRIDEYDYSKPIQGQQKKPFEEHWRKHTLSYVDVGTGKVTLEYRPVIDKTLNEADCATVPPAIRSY
UniProt Q9Y6Y8: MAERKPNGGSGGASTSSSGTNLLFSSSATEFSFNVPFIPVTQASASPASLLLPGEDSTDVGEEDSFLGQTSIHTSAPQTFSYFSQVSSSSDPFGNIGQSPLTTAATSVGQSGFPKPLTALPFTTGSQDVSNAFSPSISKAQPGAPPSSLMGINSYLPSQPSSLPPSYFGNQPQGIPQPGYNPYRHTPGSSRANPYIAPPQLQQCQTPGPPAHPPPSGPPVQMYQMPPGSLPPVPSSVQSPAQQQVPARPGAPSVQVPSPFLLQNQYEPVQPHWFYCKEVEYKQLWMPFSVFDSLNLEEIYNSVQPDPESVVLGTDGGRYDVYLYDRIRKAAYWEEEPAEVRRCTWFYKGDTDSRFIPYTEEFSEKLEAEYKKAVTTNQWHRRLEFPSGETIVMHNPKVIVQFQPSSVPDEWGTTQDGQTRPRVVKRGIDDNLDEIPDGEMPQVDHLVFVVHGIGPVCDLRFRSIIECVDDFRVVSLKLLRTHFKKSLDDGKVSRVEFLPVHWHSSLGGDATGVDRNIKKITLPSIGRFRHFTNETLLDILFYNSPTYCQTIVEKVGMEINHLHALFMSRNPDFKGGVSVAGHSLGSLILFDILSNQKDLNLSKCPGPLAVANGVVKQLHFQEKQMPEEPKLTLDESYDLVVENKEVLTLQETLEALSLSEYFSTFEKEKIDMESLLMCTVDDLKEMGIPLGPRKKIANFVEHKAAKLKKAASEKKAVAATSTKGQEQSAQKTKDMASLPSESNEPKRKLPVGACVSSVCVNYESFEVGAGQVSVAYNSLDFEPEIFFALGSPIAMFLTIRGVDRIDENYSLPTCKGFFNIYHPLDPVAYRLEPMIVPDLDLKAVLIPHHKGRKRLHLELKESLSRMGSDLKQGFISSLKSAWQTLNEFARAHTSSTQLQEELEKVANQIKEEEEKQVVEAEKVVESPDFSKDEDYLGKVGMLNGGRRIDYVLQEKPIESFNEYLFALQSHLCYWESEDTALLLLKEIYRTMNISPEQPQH
UniProt O14828: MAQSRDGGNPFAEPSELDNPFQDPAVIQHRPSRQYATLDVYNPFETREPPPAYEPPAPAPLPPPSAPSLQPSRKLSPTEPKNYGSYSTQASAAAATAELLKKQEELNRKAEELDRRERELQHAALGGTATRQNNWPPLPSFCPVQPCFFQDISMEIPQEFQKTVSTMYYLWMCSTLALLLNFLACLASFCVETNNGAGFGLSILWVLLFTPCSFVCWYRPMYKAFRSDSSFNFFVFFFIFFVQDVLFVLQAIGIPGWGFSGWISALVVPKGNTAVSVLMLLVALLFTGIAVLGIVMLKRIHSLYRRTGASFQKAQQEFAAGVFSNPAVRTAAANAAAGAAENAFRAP
UniProt Q9Y230, whole entry, looked up: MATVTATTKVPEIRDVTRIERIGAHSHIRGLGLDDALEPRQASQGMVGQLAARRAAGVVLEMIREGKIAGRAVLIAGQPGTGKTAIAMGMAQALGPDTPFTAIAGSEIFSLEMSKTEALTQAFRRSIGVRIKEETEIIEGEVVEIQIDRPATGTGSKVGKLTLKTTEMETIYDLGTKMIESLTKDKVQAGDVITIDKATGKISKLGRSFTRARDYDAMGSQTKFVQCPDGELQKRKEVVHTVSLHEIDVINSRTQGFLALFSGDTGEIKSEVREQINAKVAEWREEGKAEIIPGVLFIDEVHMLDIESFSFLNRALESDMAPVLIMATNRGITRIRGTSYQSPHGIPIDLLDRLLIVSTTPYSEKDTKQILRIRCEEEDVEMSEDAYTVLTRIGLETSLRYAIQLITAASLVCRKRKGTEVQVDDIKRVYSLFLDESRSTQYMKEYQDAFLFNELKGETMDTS
UniProt Q8WU76: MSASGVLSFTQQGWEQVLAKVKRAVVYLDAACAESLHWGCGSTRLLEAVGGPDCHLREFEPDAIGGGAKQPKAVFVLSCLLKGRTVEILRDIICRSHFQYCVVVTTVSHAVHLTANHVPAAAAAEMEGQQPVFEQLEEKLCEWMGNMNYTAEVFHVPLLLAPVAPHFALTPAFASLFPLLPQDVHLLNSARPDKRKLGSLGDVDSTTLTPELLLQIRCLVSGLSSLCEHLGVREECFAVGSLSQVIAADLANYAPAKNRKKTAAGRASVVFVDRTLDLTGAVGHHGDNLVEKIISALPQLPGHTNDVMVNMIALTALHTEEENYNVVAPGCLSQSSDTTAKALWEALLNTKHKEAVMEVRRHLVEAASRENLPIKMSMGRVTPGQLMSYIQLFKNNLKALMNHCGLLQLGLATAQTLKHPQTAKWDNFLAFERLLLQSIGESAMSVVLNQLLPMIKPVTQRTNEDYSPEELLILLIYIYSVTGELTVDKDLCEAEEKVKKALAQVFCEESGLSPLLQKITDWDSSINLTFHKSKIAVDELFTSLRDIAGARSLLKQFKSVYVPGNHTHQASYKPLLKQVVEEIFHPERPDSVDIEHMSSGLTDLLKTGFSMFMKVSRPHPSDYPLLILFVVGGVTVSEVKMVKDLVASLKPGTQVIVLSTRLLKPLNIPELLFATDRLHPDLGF
UniProt Q96FV2: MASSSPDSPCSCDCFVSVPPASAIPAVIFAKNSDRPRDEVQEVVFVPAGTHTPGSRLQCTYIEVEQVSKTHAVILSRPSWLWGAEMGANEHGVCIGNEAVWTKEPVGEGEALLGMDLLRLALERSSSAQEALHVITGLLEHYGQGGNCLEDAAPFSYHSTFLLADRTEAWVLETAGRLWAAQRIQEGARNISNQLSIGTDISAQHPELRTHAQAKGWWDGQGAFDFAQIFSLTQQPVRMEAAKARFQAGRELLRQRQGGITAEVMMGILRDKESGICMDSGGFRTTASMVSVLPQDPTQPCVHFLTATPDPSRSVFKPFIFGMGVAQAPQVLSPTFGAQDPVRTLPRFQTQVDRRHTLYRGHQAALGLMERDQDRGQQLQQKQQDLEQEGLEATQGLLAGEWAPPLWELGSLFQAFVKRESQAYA
UniProt O94885: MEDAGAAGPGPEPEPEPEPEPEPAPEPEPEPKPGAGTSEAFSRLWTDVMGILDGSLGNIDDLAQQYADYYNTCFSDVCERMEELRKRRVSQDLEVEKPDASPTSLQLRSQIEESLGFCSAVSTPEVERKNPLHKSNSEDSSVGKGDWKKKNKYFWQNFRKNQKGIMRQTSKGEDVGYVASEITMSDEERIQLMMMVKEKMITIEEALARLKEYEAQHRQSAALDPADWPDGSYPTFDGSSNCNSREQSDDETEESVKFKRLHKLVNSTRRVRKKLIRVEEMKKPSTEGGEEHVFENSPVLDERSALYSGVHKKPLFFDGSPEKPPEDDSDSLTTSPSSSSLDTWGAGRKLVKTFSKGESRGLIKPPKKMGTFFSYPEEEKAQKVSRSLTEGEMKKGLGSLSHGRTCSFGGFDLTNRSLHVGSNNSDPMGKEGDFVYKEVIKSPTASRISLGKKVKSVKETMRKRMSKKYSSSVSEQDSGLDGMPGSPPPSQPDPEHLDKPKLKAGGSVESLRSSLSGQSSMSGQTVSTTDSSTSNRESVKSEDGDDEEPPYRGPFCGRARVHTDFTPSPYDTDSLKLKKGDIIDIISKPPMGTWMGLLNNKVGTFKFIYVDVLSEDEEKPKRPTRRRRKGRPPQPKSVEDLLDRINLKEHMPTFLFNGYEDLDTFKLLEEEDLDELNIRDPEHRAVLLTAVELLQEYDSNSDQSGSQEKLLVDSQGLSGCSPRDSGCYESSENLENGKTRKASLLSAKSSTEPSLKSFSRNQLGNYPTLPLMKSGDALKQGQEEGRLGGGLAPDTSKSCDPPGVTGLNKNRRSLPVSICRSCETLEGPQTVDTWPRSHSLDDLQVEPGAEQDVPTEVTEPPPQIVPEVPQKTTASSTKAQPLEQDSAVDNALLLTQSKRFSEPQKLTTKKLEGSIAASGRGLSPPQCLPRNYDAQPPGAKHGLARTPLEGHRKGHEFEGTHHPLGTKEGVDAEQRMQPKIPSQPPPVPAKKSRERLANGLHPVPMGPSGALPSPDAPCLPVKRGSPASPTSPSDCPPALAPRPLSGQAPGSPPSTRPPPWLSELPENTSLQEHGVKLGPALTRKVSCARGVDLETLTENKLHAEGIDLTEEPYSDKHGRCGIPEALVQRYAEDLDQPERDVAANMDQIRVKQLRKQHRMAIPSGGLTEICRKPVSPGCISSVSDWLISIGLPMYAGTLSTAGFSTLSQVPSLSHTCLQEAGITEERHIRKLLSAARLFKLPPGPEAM
UniProt Q9NRP4: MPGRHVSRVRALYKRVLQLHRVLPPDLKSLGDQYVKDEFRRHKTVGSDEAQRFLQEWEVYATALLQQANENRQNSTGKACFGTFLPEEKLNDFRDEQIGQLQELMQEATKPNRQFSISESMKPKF
UniProt Q9NSI8: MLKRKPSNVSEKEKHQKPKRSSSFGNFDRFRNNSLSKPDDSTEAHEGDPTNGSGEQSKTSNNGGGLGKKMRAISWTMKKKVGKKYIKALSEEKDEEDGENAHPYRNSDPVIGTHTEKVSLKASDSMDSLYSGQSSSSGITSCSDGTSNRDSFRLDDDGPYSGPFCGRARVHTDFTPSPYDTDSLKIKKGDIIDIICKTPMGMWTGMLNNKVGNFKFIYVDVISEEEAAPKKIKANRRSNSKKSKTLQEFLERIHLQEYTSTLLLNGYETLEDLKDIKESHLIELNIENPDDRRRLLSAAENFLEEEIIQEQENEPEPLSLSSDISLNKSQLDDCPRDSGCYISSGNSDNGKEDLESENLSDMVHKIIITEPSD
UniProt O00560: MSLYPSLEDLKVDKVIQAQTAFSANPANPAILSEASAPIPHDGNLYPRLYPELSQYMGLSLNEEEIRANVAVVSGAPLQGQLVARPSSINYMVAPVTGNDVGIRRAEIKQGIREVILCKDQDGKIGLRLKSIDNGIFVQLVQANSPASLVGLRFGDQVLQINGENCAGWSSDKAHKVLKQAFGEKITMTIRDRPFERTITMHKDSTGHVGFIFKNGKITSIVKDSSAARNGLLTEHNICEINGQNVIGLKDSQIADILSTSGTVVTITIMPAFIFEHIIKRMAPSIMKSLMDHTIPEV
UniProt Q9H446: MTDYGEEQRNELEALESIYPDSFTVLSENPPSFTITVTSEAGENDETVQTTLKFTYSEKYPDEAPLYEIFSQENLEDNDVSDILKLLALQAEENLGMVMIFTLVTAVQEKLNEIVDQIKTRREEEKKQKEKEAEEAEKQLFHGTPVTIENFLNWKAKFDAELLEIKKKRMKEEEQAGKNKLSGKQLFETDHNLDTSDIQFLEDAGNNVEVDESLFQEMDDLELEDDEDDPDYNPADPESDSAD

Tests used:
Test in all cases: log2 fold change, soluble protein after heating vs DMSO (PISA); higher = thermal stabilisation; K562 cells, 10 uM, 30 min; active = over 0.2 and 3.5 SD of the protein, either way, in both replicates (recomputed)
bafetinib = compound: Cc1ccc(NC(=O)c2ccc(CN3CC[C@H](N(C)C)C3)c(C(F)(F)F)c2)cc1Nc1nccc(-c2cncnc2)n1 [bafetinib]
Outline: (§1)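 Soluble protein was defined as the supernatant after 21,000xg for 90 min. It came from K562 cells at 2×10^6 cells/mL given 10 μM compound for 30 min, heated in aliquots for 3 min across 48°C-58°C, pooled, and extracted in PBS with 0.5% NP-40 at 4°C, and was quantified by TMTpro 16plex LC-MS/MS with equalised channel sums. Thermal stability against control samples, from duplicates, is reported as log2 fold change.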

[1] = compound: Cc1cccc(CC(=O)N2CCc3c2ccc(-c2cn(C)c4ncnc(N)c24)c3F)n1
Outline: as §1

nilotinib = compound: Cc1cn(-c2cc(NC(=O)c3ccc(C)c(Nc4nccc(-c5cccnc5)n4)c3)cc(C(F)(F)F)c2)cn1 [nilotinib]
Outline: as §1

[2] = compound: Cc1nc(Nc2n[nH]c3c2CN(C(=O)N[C@H](CN(C)C)c2ccccc2)C3(C)C)c2sccc2n1
Outline: as §1

dasatinib = compound: Cc1nc(Nc2ncc(C(=O)Nc3c(C)cccc3Cl)s2)cc(N2CCN(CCO)CC2)n1 [dasatinib]
Outline: as §1

[3] = compound: Cc1ncc(-c2ccnc(Nc3ccc(S(C)(=O)=O)cc3)n2)n1C(C)C
Outline: as §1

[4] = compound: Cn1cc(-c2ccc3c(c2)CCN3C(=O)Cc2cccc(C(F)(F)F)c2)c2c(N)ncnc21
Outline: as §1

[5] = compound: Cn1cc(-c2ccc3nnc(C(F)(F)c4ccc5ncccc5c4)n3n2)cn1
Outline: as §1

tipifarnib = compound: Cn1cncc1[C@@](N)(c1ccc(Cl)cc1)c1ccc2c(c1)c(-c1cccc(Cl)c1)cc(=O)n2C [tipifarnib]
Outline: as §1

mubritinib = compound: FC(F)(F)c1ccc(/C=C/c2nc(COc3ccc(CCCCn4ccnn4)cc3)co2)cc1 [mubritinib]
Outline: as §1

[6] = compound: NC(=O)Nc1cc(-c2cccc(F)c2)sc1C(=O)N[C@H]1CCCNC1
Outline: as §1

[7] = compound: NC(=O)c1cnc(N[C@@H]2CCCC[C@@H]2N)nc1Nc1cccc(-n2nccn2)c1
Outline: as §1

[8] = compound: NC1(c2ccc(-c3nc4ccn5c(=O)[nH]nc5c4cc3-c3ccccc3)cc2)CCC1
Outline: as §1

[9] = compound: NCC(=O)Nc1ccc(-n2nc(C(F)(F)F)cc2-c2ccc3c(ccc4ccccc43)c2)cc1
Outline: as §1

entinostat = compound: Nc1ccccc1NC(=O)c1ccc(CNC(=O)OCc2cccnc2)cc1 [entinostat]
Outline: as §1

vorinostat = compound: O=C(CCCCCCC(=O)Nc1ccccc1)NO [vorinostat]
Outline: as §1

citarinostat = compound: O=C(CCCCCCNC(=O)c1cnc(N(c2ccccc2)c2ccccc2Cl)nc1)NO [citarinostat]
Outline: as §1

silmitasertib = compound: O=C(O)c1ccc2c(c1)nc(Nc1cccc(Cl)c1)c1ccncc12 [silmitasertib]
Outline: as §1

[10] = compound: O=C1NC(=O)C(c2cnc3ccccn23)=C1c1cn2c3c(cc(F)cc13)CN(C(=O)N1CCCCC1)CC2
Outline: as §1

[11] = compound: c1cc(OCCN2CCCCC2)cc(-c2n[nH]c3ccc(-c4nnc[nH]4)cc23)c1
Outline: as §1

Measured: log2 fold change

SDHA (UniProt P31040)
inactive: bafetinib -0.029 | [1] 0.017 | nilotinib 0.005 | [2] 0.003 | dasatinib 0.038 | [3] -0.041 | [4] -0.001 | [5] 0.008 | tipifarnib 0.017 | mubritinib 0.015 | [6] 0.047 | [7] -0.034 | [8] -0.015 | [9] 0.028 | entinostat 0.008 | vorinostat -0.01 | citarinostat 0.068 | silmitasertib -0.033 | [10] -0.024 | [11] 0.03

RTF1 (UniProt Q92541)
inactive: bafetinib -0.023 | [1] -0.006 | nilotinib -0.009 | [2] -0.082 | dasatinib -0.093 | [3] -0.01 | [4] 0.033 | [5] 0.015 | tipifarnib -0.044 | mubritinib 0.086 | [6] -0.002 | [7] -0.04 | [8] -0.062 | [9] -0.052 | entinostat 0.047 | vorinostat 0.057 | citarinostat 0.063 | silmitasertib -0.008 | [10] -0.107 | [11] 0.017

SEC23IP (UniProt Q9Y6Y8)
inactive: bafetinib -0.23 | [1] 0.036 | nilotinib -0.017 | [2] -0.061 | dasatinib -0.143 | [3] -0.026 | [4] 0.148 | [5] 0.009 | tipifarnib -0.057 | mubritinib 0.014 | [6] -0.049 | [7] -0.152 | [8] -0.221 | [9] -0.033 | entinostat 0.049 | vorinostat 0.065 | citarinostat 0.055 | silmitasertib -0.03 | [10] -0.058 | [11] -0.063

SART3, A0A499FI31
active: [3] -0.261
inactive: bafetinib -0.057 | [1] 0.039 | nilotinib -0.02 | [2] -0.189 | dasatinib -0.128 | [4] 0.029 | [5] -0.001 | tipifarnib 0.008 | mubritinib 0.024 | [6] -0.011 | [7] -0.105 | [8] -0.175 | [9] -0.054 | entinostat 0.055 | vorinostat 0.1 | citarinostat 0.098 | silmitasertib 0.114 | [10] -0.136 | [11] -0.02

SCAMP3 (UniProt O14828)
inactive: bafetinib -0.035 | [1] -0.021 | nilotinib 0.089 | [2] -0.05 | dasatinib 0.07 | [3] -0.006 | [4] -0.03 | [5] 0.002 | tipifarnib -0.005 | mubritinib 0.054 | [6] 0.004 | [7] 0.011 | [8] 0.037 | [9] 0.028 | entinostat -0.022 | vorinostat -0.046 | citarinostat -0.016 | silmitasertib -0.039 | [10] -0.053 | [11] 0.058

RUVBL2 (UniProt Q9Y230)
inactive: bafetinib 0.044 | [1] 0.047 | nilotinib 0.107 | [2] 0.07 | dasatinib 0.025 | [3] -0.012 | [4] -0.012 | [5] -0.018 | tipifarnib -0.02 | mubritinib 0.014 | [6] 0.012 | [7] 0.013 | [8] 0.025 | [9] 0.075 | entinostat -0.055 | vorinostat -0.026 | citarinostat -0.013 | silmitasertib -0.029 | [10] -0.008 | [11] -0.021

SCFD2 (UniProt Q8WU76)
inactive: bafetinib 0.056 | [1] 0.114 | nilotinib -0.013 | [2] -0.004 | dasatinib -0.028 | [3] 0.02 | [4] -0.053 | [5] -0.037 | tipifarnib -0.038 | mubritinib -0.047 | [6] 0.058 | [7] 0.012 | [8] -0.079 | [9] 0.034 | entinostat 0.027 | vorinostat 0.085 | citarinostat 0.061 | silmitasertib 0.071 | [10] -0.003 | [11] -0.197

SCYL2 (UniProt Q6P3W7)
inactive: bafetinib -0.05 | [1] 0.018 | nilotinib -0.007 | [2] -0.007 | dasatinib -0.103 | [3] -0.017 | [4] 0.023 | [5] -0.052 | tipifarnib -0.029 | mubritinib 0.018 | [6] 0.003 | [7] -0.038 | [8] -0.068 | [9] -0.096 | entinostat 0.009 | vorinostat 0.011 | citarinostat 0.04 | silmitasertib -0.004 | [10] -0.007 | [11] -0.024

SCRN2 (UniProt Q96FV2)
inactive: bafetinib -0.002 | [1] 0.012 | nilotinib 0.045 | [2] -0.007 | dasatinib -0.06 | [3] -0.066 | [4] -0.019 | [5] -0.157 | tipifarnib 0.069 | mubritinib 0.118 | [6] -0.052 | [7] 0.044 | [8] -0.09 | [9] -0.069 | entinostat -0.016 | vorinostat -0.009 | citarinostat 0.042 | silmitasertib -0.003 | [10] -0.029 | [11] 0.01

Quoted from the entries so far (two entries):
SCFD2 (UniProt Q8WU76)
inactive: bafetinib 0.056 | [1] 0.114 | nilotinib -0.013 | [2] -0.004 | dasatinib -0.028 | [3] 0.02 | [4] -0.053 | [5] -0.037 | tipifarnib -0.038 | mubritinib -0.047 | [6] 0.058 | [7] 0.012 | [8] -0.079 | [9] 0.034 | entinostat 0.027 | vorinostat 0.085 | citarinostat 0.061 | silmitasertib 0.071 | [10] -0.003 | [11] -0.197

SCYL2 (UniProt Q6P3W7)
inactive: bafetinib -0.05 | [1] 0.018 | nilotinib -0.007 | [2] -0.007 | dasatinib -0.103 | [3] -0.017 | [4] 0.023 | [5] -0.052 | tipifarnib -0.029 | mubritinib 0.018 | [6] 0.003 | [7] -0.038 | [8] -0.068 | [9] -0.096 | entinostat 0.009 | vorinostat 0.011 | citarinostat 0.04 | silmitasertib -0.004 | [10] -0.007 | [11] -0.024

Next results

SASH1 (UniProt O94885)
inactive: bafetinib -0.052 | [1] -0.006 | nilotinib -0.079 | [2] -0.071 | dasatinib -0.046 | [3] 0.034 | [4] 0.011 | [5] 0.073 | tipifarnib 0.025 | mubritinib 0.032 | [6] -0.08 | [7] -0.06 | [8] -0.053 | [9] -0.147 | entinostat 0.035 | vorinostat 0.077 | citarinostat 0.167 | silmitasertib 0.033 | [10] 0.008 | [11] -0.218

SDHAF3 (UniProt Q9NRP4)
inactive: bafetinib -0.081 | [1] -0.092 | nilotinib -0.051 | [2] 0.042 | dasatinib -0.089 | [3] -0.034 | [4] -0.048 | [5] 0.058 | tipifarnib 0.019 | mubritinib 0.059 | [6] -0.012 | [7] -0.064 | [8] -0.098 | [9] 0.024 | entinostat 0.027 | vorinostat 0.024 | citarinostat 0.025 | silmitasertib 0.107 | [10] -0.021 | [11] -0.099

SAMSN1 isoform 3 (UniProt Q9NSI8)
inactive: bafetinib -0.049 | [1] 0.04 | nilotinib -0.036 | [2] -0.169 | dasatinib -0.09 | [3] 0.02 | [4] 0.029 | [5] 0.037 | tipifarnib -0.015 | mubritinib 0.048 | [6] -0.06 | [7] -0.067 | [8] -0.067 | [9] -0.028 | entinostat 0.099 | vorinostat 0.009 | citarinostat 0.06 | silmitasertib 0.063 | [10] -0.073 | [11] -0.025

SCAF11 (UniProt Q99590)
inactive: bafetinib 0.173 | [1] -0.144 | nilotinib 0.078 | [2] -0.007 | dasatinib 0.144 | [3] 0.379 | [4] -0.05 | [5] -0.03 | tipifarnib 0.067 | mubritinib 0.052 | [6] 0.019 | [7] 0.073 | [8] 0.129 | [9] -0.003 | entinostat -0.054 | vorinostat 0.12 | citarinostat -0.13 | silmitasertib -0.038 | [10] 0.147 | [11] -0.29

SDCBP (UniProt O00560)
inactive: bafetinib -0.229 | [1] 0.038 | nilotinib 0.015 | [2] -0.021 | dasatinib -0.12 | [3] 0 | [4] -0.076 | [5] -0.058 | tipifarnib 0.018 | mubritinib 0.025 | [6] -0.027 | [7] -0.017 | [8] -0.207 | [9] -0.189 | entinostat 0.007 | vorinostat 0.063 | citarinostat -0.014 | silmitasertib 0.073 | [10] 0.028 | [11] -0.08

SCAP (UniProt Q12770)
inactive: bafetinib -0.029 | [1] -0.058 | nilotinib -0.033 | [2] 0.08 | dasatinib 0.022 | [3] 0.047 | [4] 0.011 | [5] 0.042 | tipifarnib -0.001 | mubritinib 0.011 | [6] 0.043 | [7] 0.039 | [8] -0.071 | [9] -0.065 | entinostat 0.065 | vorinostat -0.023 | citarinostat 0.015 | silmitasertib 0.068 | [10] 0.021 | [11] -0.099

RWDD1 (UniProt Q9H446)
inactive: bafetinib -0.082 | [1] 0.09 | nilotinib -0.03 | [2] -0.073 | dasatinib 0.004 | [3] -0.003 | [4] 0.048 | [5] 0.056 | tipifarnib 0 | mubritinib 0.027 | [6] -0.01 | [7] -0.058 | [8] 0.018 | [9] -0.051 | entinostat 0.011 | vorinostat 0.028 | citarinostat 0 | silmitasertib 0.036 | [10] -0.001 | [11] 0.018
